## Screening data, single-dose tests

A: 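Whole-cell growth test on Mycobacterium tuberculosis, read after 4 days in a medium based on cholesterol and the lipid DPPC; the read-out is not stated. Compounds at 50 µM. Direction is inferred from retests: higher values go with more growth inhibition. Of about 69,000 compounds tested this way, about 370 (0.54%) reached 50% or more in at least one test.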
B: 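Growth of Mycobacterium tuberculosis over 3 days (7H9 medium with glucose and tyloxapol); the read-out is not stated. Tested at 50 µM. Direction is inferred from retests: higher values go with more growth inhibition. Of about 69,000 compounds tested this way, about 760 (1.1%) reached 50% or more in at least one test.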

Values are the deposited “Percent Effect”, in %.
The controls that fix the scale are not given in the record; negative values are as filed.
The compounds are a random part of those screened.
Two or more numbers in one place are separate tests of the same structure; such repeats can differ widely.

With CC(O)CNC(=O)NCc1ccc(N2CCNC(=O)C2)cc1 (stereo not shown) the screen gave A: -14.75%; B: -42.16%.
With CCc1nnc(CN2CCN(CC(O)c3ccccc3)CC2)o1 (stereo not shown) the screen gave A: -8.127%; B: -1.801%.
With CCc1nc(C(=O)N2CC(C)CN(C)c3ccccc32)c[nH]1 (stereo not shown) the screen gave A: -19.45%; B: 20.16%.
With CCN1CC(=O)NCC12CCN(C(=O)c1ccco1)C2.O=C(O)C(F)(F)F (stereo not shown) the screen gave A: 9.655%; B: -28.31%.
With Cc1ccc(-c2cc(C(=O)N(C)Cc3noc4c3CCCC4)[nH]n2)s1 the screen gave A: -11.04%; B: -0.8196%.
With COCc1ccc(C(=O)NS(=O)(=O)c2ccc3c(c2)CCC(=O)N3)cc1 the screen gave A: -11.03%; B: -32.6%.
With COc1cccc(CN2CC[C@H](c3nnc(C)o3)C2)c1 the screen gave A: -14.81%; B: -19.96% & -6.406%.
With COc1ccc(-c2n[nH]cc2CN(C)CCCN2CCOCC2)c(F)c1 the screen gave A: 25.53%; B: 11.42% & -14.45%.
With O=C(NCCOc1ccc(F)c(F)c1)NCc1ccncc1 the screen gave A: 18.16%; B: -6.9%.
With COCCNc1cc(C(=O)N2CCOCC2)nc(C)n1 the screen gave A: -10.58%; B: 5.812%.
With c1cnnc(N2CCCC(NCc3ccncc3)C2)c1 (stereo not shown) the screen gave A: -18.41%; B: -14.43%.
With CCc1nc(N)sc1C(=O)N1CCC(c2cc(O)nc(C)n2)CC1 the screen gave A: -19.67%; B: -26.19%.
With Nc1ccnc(N2CCC(Cc3ccccc3Cl)(C(=O)O)CC2)n1 the screen gave A: -8.418%; B: -7.637%.
With O=C(O)C(F)(F)F.c1nc(COCC2CC2)c2n1CCCN(CC1CC1)C2 the screen gave A: 0.1417%; B: -4.519%.
With O=C1CC(C2CCCCC2)c2c(n(C3CCCC3)[nH]c2=O)N1 (stereo not shown) the screen gave A: 1.939%; B: -13.09%.
With CC(C)c1nc(N2CC[C@@H](N(C)CCc3ccccn3)[C@H](O)C2)no1 the screen gave A: -11.86%; B: -32.23%.
With CCn1nc(C)c2nnn(CC(=O)Nc3ccc(C)c(C)c3)c(=O)c21 the screen gave A: 5.262%; B: 9.167%.
With Cc1c(CNC(=O)C2CCCN2C(=O)C2CC2)oc2ccccc12 (stereo not shown) the screen gave A: 28.79%; B: 26.3%.
With N#Cc1cccc(N2CCCC3(CCC(=O)N(C4CCCC4)C3)C2)n1 (stereo not shown) the screen gave A: -21.81%; B: -19.3%.
With CC(O)CN1CCc2onc(-c3ccccc3F)c2C1 (stereo not shown) the screen gave A: 1.327%; B: -20.19%.
With O=C(CSCCN1CCOCC1)N1CCc2ccccc2C1 the screen gave A: -1.385%; B: 9.373%.
With Cn1cc(C2(C)CN(c3ncccc3C#N)CCO2)cn1 (stereo not shown) the screen gave A: 0.5623%; B: -18.38%.
With Cc1c[nH]c(C2CCCN2C(=O)CCc2c(C)n[nH]c2C)n1 (stereo not shown) the screen gave A: -0.3267% & 6.344%; B: 13.67%.
With Cc1nn(C)c(C)c1CN(C)C(C(=O)O)c1ccc(F)cc1F (stereo not shown) the screen gave A: -7.622% & -1.267%; B: 15.12%.
With O=C(NC1(c2nccs2)CCCC1)c1[nH]nc(C2CC2)c1Cl the screen gave A: 8.186% & 0.5719%; B: 5.801% & 17.99%.
With COCCN1CCC2(CCN(Cc3ccc(OC)cc3)CC2)C1=O.O=C(O)C(F)(F)F the screen gave A: -11.11%; B: 2.692%.
With Cl.N#CC1(C(=O)NCC2CCC3(CCNCC3)O2)CC1 (stereo not shown) the screen gave A: -5.366%; B: -3.153%.
With O=C(c1cccnc1-n1cncn1)N1CCN(CC(F)(F)F)CC1 the screen gave A: 18.68%; B: 6.367% & -9.231%.
With CNc1cnc(CC2COCCN(Cc3cccc(C)n3)C2)cn1 (stereo not shown) the screen gave A: 5.481%; B: 23.84%.

Source: ChEMBL document CHEMBL3988442, “University of Dundee, Small-Polar-MMV Screening Library” (2021).